{"source": "PubChem BioAssay AID1259308 (NCATS, 2017)", "aim": "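Candidate targets for better recombinant protein yield in mammalian cells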 (primary screen)", "cells": "human HEK293 embryonic kidney cells stably expressing firefly luciferase (HEK-CMV-Luc2-Hygro)", "reagent": "single siRNA against human genes, 0.8 pmol siRNA per well", "timing": "72 h", "measured": "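Luciferase light (ONE-Glo) measured on one replicate plate set and viability (CellTiter-Glo) on the other, scaled to a negative control siRNA, with robust z-scores and luciferase per cell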", "reading the numbers": "total luciferase, z-score: higher = more reporter protein produced", "active means": "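Active when the median/MAD z-score for overall luciferase is greater than 3; a gene was taken forward for validation with new siRNAs if at least two of its three siRNAs passed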", "calls": "active = raised luciferase; inactive = no rise", "note": "This is an unselected part of about 59,000 deposited reagents. About 1,510 of them (2.6%) count as active. 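Calls use total luciferase alone and ignore viability, so some active siRNAs may act by altering cell number.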 Unmarked entries are inactive. Reagents against one gene are numbered here. Further read-outs or replicates are left out here."}
{"target":"RPL29P30","reagent no.":1,"total luciferase, z-score":1.06}
{"target":"RPL29P30","reagent no.":2,"total luciferase, z-score":2.02}
{"target":"RPL29P30","reagent no.":3,"total luciferase, z-score":0.211}
{"target":"MICALL1","reagent no.":1,"total luciferase, z-score":0.845}
{"target":"MICALL1","reagent no.":2,"total luciferase, z-score":1.02}
{"target":"MICALL1","reagent no.":3,"total luciferase, z-score":0.162}
{"target":"HSD17B13","reagent no.":1,"total luciferase, z-score":0.254}
{"target":"HSD17B13","reagent no.":2,"total luciferase, z-score":-1.03}
{"target":"HSD17B13","reagent no.":3,"total luciferase, z-score":-0.117}
{"target":"PTEN","reagent no.":1,"total luciferase, z-score":1.09}
{"target":"PTEN","reagent no.":2,"total luciferase, z-score":0.0238}
{"target":"PTEN","reagent no.":3,"total luciferase, z-score":-0.263}
